Test results taken from patent US7189873B2 (priority 2002, dated 2007).
Like-named read-outs stand apart in the source and are kept apart here. Some results were stated once for a whole list of compounds, not compound by compound.

How the values were obtained:
Format in all cases: in vivo
Phytophthora [1] = details: 200 ppm; tomato plants cv. Roter Gnom; inoculated two days after application; assessed after 4 days; untreated controls infected over 80%
Plasmopara viticola = assay: D-1: Action against Plasmopara viticola (downy mildew) on vines, preventive spray test; details: 200 ppm; grape seedlings cv. Gutedel; inoculated one day after application; assessed after 6 days; untreated controls infected over 80%
Phytophthora [2] = details: 200 ppm; potato plants cv. Bintje; inoculated two days after application; assessed after 4 days; untreated controls infected over 80%

SMILES	inhibit fungal infestation (Phytophthora [1])	inhibit fungal infestation (Plasmopara viticola)	inhibit fungal infestation (Phytophthora [2])
C#CCOc1ccc(CONC(=O)C(OCC#C)c2ccccc2)cc1OC (stereo not shown) [Compound 1.004]	at least 80%	at least 80%	
C#CCOc1ccc(CONC(=O)C(OCC#C)c2ccc(Cl)cc2)cc1OC (stereo not shown) [Compound 1.040]	at least 80%	at least 80%	at least 80%
C#CCOc1ccc(CONC(=O)C(O)c2ccc(Br)cc2)cc1OC (stereo not shown) [Compound 1.055]	at least 80%		
C#CCOc1ccc(CONC(=O)C(O)c2ccc(CC)cc2)cc1OC (stereo not shown) [Compound 1.091]	at least 80%		
C#CCOC(C(=O)NOCc1ccc(OCC#CCC)c(OC)c1)c1ccccc1 (stereo not shown) [Compound 5.004]	at least 80%	at least 80%	at least 80%
CCC#CCOc1ccc(CONC(=O)C(O)c2ccc(Cl)cc2)cc1OC (stereo not shown) [Compound 5.037]	at least 80%	at least 80%	
C#CCOC(C(=O)NOCc1ccc(OCC#CCC)c(OC)c1)c1ccc(Cl)cc1 (stereo not shown) [Compound 5.040]	at least 80%	at least 80%	at least 80%
CCC#CCOc1ccc(CONC(=O)C(O)c2ccc(Br)cc2)cc1OC (stereo not shown) [Compound 5.055]	at least 80%		
CCC#CCOc1ccc(CONC(=O)C(O)c2ccc(CC)cc2)cc1OC (stereo not shown) [Compound 5.091]	at least 80%	at least 80%	
CCC#CCOc1ccc(CONC(=O)C(O)c2ccc(Cl)c(Cl)c2)cc1OC (stereo not shown) [Compound 5.163]	at least 80%		
COc1cc(CONC(=O)C(NS(C)(=O)=O)C(C)C)ccc1OCC#Cc1ccc(Cl)cc1 (stereo not shown) [Compound 23.055]	at least 80%	at least 80%	at least 80%
CCS(=O)(=O)NC(C(=O)NOCc1ccc(OCC#Cc2ccc(Cl)cc2)c(OC)c1)C(C)C (stereo not shown) [Compound 23.056]	at least 80%	at least 80%	
COc1cc(CONC(=O)C(NS(=O)(=O)N(C)C)C(C)C)ccc1OCC#Cc1ccc(Cl)cc1 (stereo not shown) [Compound 23.057]	at least 80%		
